Assay results as given in patent publication US20030236190A1.
These are yes or no findings as the source states them, for the method shown. Some results given as binding are weak or reduced against the parent protein; the word gives no strength. For part of these data: Tags and fused reporters may be left off the sequences shown.

Amino acid sequences for entries named in this document (tags omitted). A change or cut given only in a name is not applied to a line headed by its entry. Residues count along the entry.
UniProt P06213, residues 28-956: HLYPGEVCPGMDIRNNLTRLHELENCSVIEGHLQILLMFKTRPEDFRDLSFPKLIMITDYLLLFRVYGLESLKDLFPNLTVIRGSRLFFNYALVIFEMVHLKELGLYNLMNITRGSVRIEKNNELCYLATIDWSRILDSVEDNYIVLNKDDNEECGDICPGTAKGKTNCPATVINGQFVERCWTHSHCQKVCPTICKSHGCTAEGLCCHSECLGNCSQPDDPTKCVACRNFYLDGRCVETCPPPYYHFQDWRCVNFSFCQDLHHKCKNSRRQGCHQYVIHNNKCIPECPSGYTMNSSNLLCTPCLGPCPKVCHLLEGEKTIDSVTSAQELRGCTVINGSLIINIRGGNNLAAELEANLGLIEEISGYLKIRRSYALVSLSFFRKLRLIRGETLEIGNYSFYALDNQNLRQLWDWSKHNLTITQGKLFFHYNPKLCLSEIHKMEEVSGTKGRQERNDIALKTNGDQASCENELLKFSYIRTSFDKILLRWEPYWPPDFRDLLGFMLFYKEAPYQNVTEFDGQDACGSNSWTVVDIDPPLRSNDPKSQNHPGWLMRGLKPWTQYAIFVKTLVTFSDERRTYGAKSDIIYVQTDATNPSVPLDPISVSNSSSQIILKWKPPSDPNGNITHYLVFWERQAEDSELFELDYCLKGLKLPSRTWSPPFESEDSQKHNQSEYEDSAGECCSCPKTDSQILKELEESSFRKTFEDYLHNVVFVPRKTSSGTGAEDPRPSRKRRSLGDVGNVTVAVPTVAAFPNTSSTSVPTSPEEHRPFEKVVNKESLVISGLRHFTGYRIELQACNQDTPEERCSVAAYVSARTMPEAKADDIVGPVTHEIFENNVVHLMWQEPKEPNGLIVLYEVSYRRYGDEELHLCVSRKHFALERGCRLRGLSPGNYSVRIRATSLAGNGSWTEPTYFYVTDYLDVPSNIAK
UniProt P08069, residues 31-935: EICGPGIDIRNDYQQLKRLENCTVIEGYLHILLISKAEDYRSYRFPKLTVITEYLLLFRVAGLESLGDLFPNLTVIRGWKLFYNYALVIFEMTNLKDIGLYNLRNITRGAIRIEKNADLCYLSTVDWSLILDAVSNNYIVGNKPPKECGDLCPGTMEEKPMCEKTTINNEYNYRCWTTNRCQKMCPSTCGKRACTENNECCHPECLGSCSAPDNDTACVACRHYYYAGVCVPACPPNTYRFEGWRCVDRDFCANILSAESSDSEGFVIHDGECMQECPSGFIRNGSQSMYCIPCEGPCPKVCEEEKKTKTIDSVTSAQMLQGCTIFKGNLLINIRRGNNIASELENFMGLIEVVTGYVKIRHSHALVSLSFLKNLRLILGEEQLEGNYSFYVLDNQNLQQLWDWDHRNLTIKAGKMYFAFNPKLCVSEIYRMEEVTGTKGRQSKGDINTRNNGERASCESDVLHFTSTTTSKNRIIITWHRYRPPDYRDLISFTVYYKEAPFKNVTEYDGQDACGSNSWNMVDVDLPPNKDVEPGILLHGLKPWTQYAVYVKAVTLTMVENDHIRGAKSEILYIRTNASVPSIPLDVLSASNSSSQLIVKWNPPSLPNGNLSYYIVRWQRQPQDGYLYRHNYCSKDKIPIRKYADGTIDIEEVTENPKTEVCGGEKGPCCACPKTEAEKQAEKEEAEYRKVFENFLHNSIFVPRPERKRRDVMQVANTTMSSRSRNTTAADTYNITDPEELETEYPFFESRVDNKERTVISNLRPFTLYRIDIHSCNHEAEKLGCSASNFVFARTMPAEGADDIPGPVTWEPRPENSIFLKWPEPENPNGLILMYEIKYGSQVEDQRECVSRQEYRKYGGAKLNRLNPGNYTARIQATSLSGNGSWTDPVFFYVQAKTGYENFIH

How the values were obtained:
[1] = molecular target: Insulin receptor prepared according to Bass et al., 1996: soluble human insulin receptor-immunoglobulin heavy chain chimera (human) (UniProt P06213); assay: FP competition against FITC-RP9 on sIR-Fc
[2] = molecular target: Insulin receptor prepared according to Bass et al., 1996: soluble human insulin receptor-immunoglobulin heavy chain chimera (human) (UniProt P06213); assay: BIAcore competition (FIG. 29), MBP fusion
[3] = molecular target: Soluble IGF-1R (R&D Systems, Cat. # 391-GR/CF); recombinant human IGF-1R (human) (UniProt P08069); assay: phage competition ELISA on coated IGF-1R

| binding [1] | Binder | other results |
| --- | --- | --- |
| binds | DYKDFYDAIDQLVRGSARAGGTRD [20E2] | – |
| – | MBP fusion 436 (H2C-9aa-H2C) (protein, not shown: large carriers; small tags and cut ends) NNNNLGIEGRISEFIEGRAQPAMAFHENFYDWFVRQVSGGSGGSGGSFHENFYDWFVRQVSAAAGAPVPYPDPLEPRAA | binding [2]: binds |
| binds | FHENFYDWFVQRVSKK [H2C (as listed in Tables 9, 21 and 22: …)] | – |
| binds | GIISQSCPESFYDWFAGQVSDPWWCW [G33] | – |
| – | LDQERAWLWCEISGRGCLSGGSGGSGSLDESFYDWFERQLGKK [D815-6L-RP9] | binding [3]: binds |
| binds | PPWGARFYDAIEQLVFDNL [RP4] | – |
| binds | GSLDESFYDWFERQLG [RP9 (…, as listed for the IGF-1R assays)] | – |
| – | MBP fusion 463 (H2C-3aa-H2C) (protein, not shown: large carriers; small tags and cut ends) NNNNLGIEGRISEFIEGRAQPAMAFHENFYDWFVRQVSGGSFHENFYDWFVRQVSAAAGAPVPYPDPLEPRAA | binding [2]: binds |
| binds | SQAGSAFYAWFDQVLRTV [RP15] | – |
